Earlier results on one molecule are cited in patent US5229412A, “Method for relieving anxiety using 5-hydroxytryptamine-1A-receptor-binding compounds” (The Board of Trustees of the Leland Stanford Junior …, priority 1988, dated 1993).

The subject of the data set is 5-HT1A receptors. The conditions noted are these: background statement; cited from earlier work.

SMILES strings stand for the structures.

`CC[C@@H](CO)NC(=O)[C@@H]1C=C2c3cccc4c3c(cn4C)C[C@H]2N(C)C1` [methylsergide]: the “inhibition of [^3 H]-8-OH-DPAT binding to 5-HT1A receptors (in words)” value is “potent inhibitors”.
